# No constants are given. Whether binding was seen depends on the method and setting. A result given as binding can be weak or reduced; the word gives no strength. For some assays here: Binding seen in cells or lysates may run through a third protein. For some assays here: Sequences can lack the tags named with a protein.
# B1: HA-RAD17, expressed in 293FT cells (protein, UniProt O75943-2 1-670)
# chain: MNQVTDWVDPSFDDFLECSGVSTITATSLGVNNSSHRRKNGPSTLESSRFPARKRGNLSSLEQIYGLENSKEYLSENEPWVDKYKPETQHELAVHKKKIEEVETWLKAQVLERQPKQGGSILLITGPPGCGKTTTLKILSKEHGIQVQEWINPVLPDFQKDDFKGMFNTESSFHMFPYQSQIAVFKEFLLRATKYNKLQMLGDDLRTDKKIILVEDLPNQFYRDSHTLHEVLRKYVRIGRCPLIFIISDSLSGDNNQRLLFPKEIQEECSISNISFNPVAPTIMMKFLNRIVTIEANKNGGKITVPDKTSLELLCQGCSGDIRSAINSLQFSSSKGENNLRPRKKGMSLKSDAVLSKSKRRKKPDRVFENQEVQAIGGKDVSLFLFRALGKILYCKRASLTELDSPRLPSHLSEYERDTLLVEPEEVVEMSHMPGDLFNLYLHQNYIDFFMEIDDIVRASEFLSFADILSGDWNTRSLLREYSTSIATRGVMHSNKARGYAHCQGGGSSFRPLHKPQWFLINKKYRENCLAAKALFPDFCLPALCLQTQLLPYLALLTIPMRNQAQISFIQDIGRLPLKRHFGRLKMEALTDREHGMIDPDSGDEAQLNGGHSAEESLGEPTQATVPETWSLPLSQNSASELPASQPQPFSAQGDMEENIIIEDYESDGT
# B2: FH-RAD17 protein purified from transfected 293FT cells (protein, UniProt O75943-2 1-670)
# chain: MNQVTDWVDPSFDDFLECSGVSTITATSLGVNNSSHRRKNGPSTLESSRFPARKRGNLSSLEQIYGLENSKEYLSENEPWVDKYKPETQHELAVHKKKIEEVETWLKAQVLERQPKQGGSILLITGPPGCGKTTTLKILSKEHGIQVQEWINPVLPDFQKDDFKGMFNTESSFHMFPYQSQIAVFKEFLLRATKYNKLQMLGDDLRTDKKIILVEDLPNQFYRDSHTLHEVLRKYVRIGRCPLIFIISDSLSGDNNQRLLFPKEIQEECSISNISFNPVAPTIMMKFLNRIVTIEANKNGGKITVPDKTSLELLCQGCSGDIRSAINSLQFSSSKGENNLRPRKKGMSLKSDAVLSKSKRRKKPDRVFENQEVQAIGGKDVSLFLFRALGKILYCKRASLTELDSPRLPSHLSEYERDTLLVEPEEVVEMSHMPGDLFNLYLHQNYIDFFMEIDDIVRASEFLSFADILSGDWNTRSLLREYSTSIATRGVMHSNKARGYAHCQGGGSSFRPLHKPQWFLINKKYRENCLAAKALFPDFCLPALCLQTQLLPYLALLTIPMRNQAQISFIQDIGRLPLKRHFGRLKMEALTDREHGMIDPDSGDEAQLNGGHSAEESLGEPTQATVPETWSLPLSQNSASELPASQPQPFSAQGDMEENIIIEDYESDGT
# modifications: phosphoserine at S635 (readily phosphorylated on S635 when expressed in cells)
# B3: FH-RAD17-S635A protein purified from transfected 293FT cells (protein, UniProt O75943-2 1-670)
# chain: MNQVTDWVDPSFDDFLECSGVSTITATSLGVNNSSHRRKNGPSTLESSRFPARKRGNLSSLEQIYGLENSKEYLSENEPWVDKYKPETQHELAVHKKKIEEVETWLKAQVLERQPKQGGSILLITGPPGCGKTTTLKILSKEHGIQVQEWINPVLPDFQKDDFKGMFNTESSFHMFPYQSQIAVFKEFLLRATKYNKLQMLGDDLRTDKKIILVEDLPNQFYRDSHTLHEVLRKYVRIGRCPLIFIISDSLSGDNNQRLLFPKEIQEECSISNISFNPVAPTIMMKFLNRIVTIEANKNGGKITVPDKTSLELLCQGCSGDIRSAINSLQFSSSKGENNLRPRKKGMSLKSDAVLSKSKRRKKPDRVFENQEVQAIGGKDVSLFLFRALGKILYCKRASLTELDSPRLPSHLSEYERDTLLVEPEEVVEMSHMPGDLFNLYLHQNYIDFFMEIDDIVRASEFLSFADILSGDWNTRSLLREYSTSIATRGVMHSNKARGYAHCQGGGSSFRPLHKPQWFLINKKYRENCLAAKALFPDFCLPALCLQTQLLPYLALLTIPMRNQAQISFIQDIGRLPLKRHFGRLKMEALTDREHGMIDPDSGDEAQLNGGHSAEESLGEPTQATVPETWSLPLAQNSASELPASQPQPFSAQGDMEENIIIEDYESDGT
# Key:
# [1] = target: GST-SMG7 C-terminal LCR fragment (human (cDNA from HCT116 cells)); assay: pull-down; GST and GST-SMG7 fragments on glutathione agarose incubated with lysates from 293FT cells transiently expressing HA-RAD17, overnight at 4 °C; BC100 washes; western blot with α-RAD17; only the target purified
# [2] = target: GST-SMG7 N-terminal fragment containing the 14-3-3 domain (human (cDNA from HCT116 cells)); assay: as above
# [3] = target: GST-SMG7 C-terminal LCR fragment (human (cDNA from HCT116 cells)); assay: pull-down; GST or GST-SMG7 fragments on glutathione agarose incubated with purified FH-RAD17 or FH-RAD17-S635A, overnight at 4 °C; BC100 washes; western blot with α-RAD17 and α-RAD17-pS635; both purified
# [4] = target: GST-SMG7 N-terminal fragment containing the 14-3-3 domain (human (cDNA from HCT116 cells)); assay: as above
Binder,binding [1],binding [2],binding [3],binding [4]
B1,binds,binds,–,–
B2,–,–,binds,binds
B3,–,–,binds,–

# Source: publication PMC8021557
